The other results are listed elsewhere or left out. Repeats are few or missing, and single values can be far off.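 Cells were imaged in 1,536-well plates, and nuclei stained with an antibody against cleaved PARP were counted against all DNA-stained nuclei to give the apoptosis fraction. Screening doses were chosen to leave most cells alive, and resting and induced cleaved-PARP levels differ strongly between cell lines.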
Columns and labels:
Assay in all cases: cleaved PARP positive nuclei fraction relative to DMSO control; melanoma cells; higher = more apoptosis
Conditions in all cases: library dose: low library concentration; 72 h
501Mel = tested on: 501Mel
A101D = tested on: A101D
A2058 = tested on: A2058
A375 = tested on: A375
C32 = tested on: C32
CBRC008 = tested on: CBRC008 (line from a melanoma biopsy)
CBRC014 = tested on: CBRC014 (line from a melanoma biopsy)
CBRC016 = tested on: CBRC016 (line from a melanoma biopsy)
CBRC017 = tested on: CBRC017 (line from a melanoma biopsy)
CBRC013 = tested on: CBRC013 (line from a melanoma biopsy)

SMILES	cleaved PARP positive nuclei fraction (501Mel) [%]	cleaved PARP positive nuclei fraction (A101D) [%]	cleaved PARP positive nuclei fraction (A2058) [%]	cleaved PARP positive nuclei fraction (A375) [%]	cleaved PARP positive nuclei fraction (C32) [%]	cleaved PARP positive nuclei fraction (CBRC008) [%]	cleaved PARP positive nuclei fraction (CBRC014) [%]	cleaved PARP positive nuclei fraction (CBRC016) [%]	cleaved PARP positive nuclei fraction (CBRC017) [%]	cleaved PARP positive nuclei fraction (CBRC013) [%]
COc1cc([C@@H]2c3cc4c(cc3[C@@H](O[C@@H]3O[C@@H]5CO[C@@H](C)O[C@H]5[C@H](O)[C@H]3O)[C@H]3COC(=O)[C@H]23)OCO4)cc(OC)c1O [etoposide] + Cn1cc(C2=C(c3cn(C4CCN(Cc5ccccn5)CC4)c4ccccc34)C(=O)NC2=O)c2ccccc21 [Enzastaurin] (first compound 0.02 µM, partner dose 0.8 µM)	44.9	190	118	226	69.7	101	102	80.5	103	
Cc1cc(Nc2cc(N3CCN(C)CC3)nc(/C=C/c3ccccc3)n2)n[nH]1 + N.N.[Cl][Pt][Cl] [cisplatin] (first compound 0.04 µM, partner dose 1.6 µM)	137	24.9	116	105	92.7	88.5	100	128	129	
N.N.[Cl][Pt][Cl] [cisplatin] + CNC(=O)c1cc(Oc2ccc(NC(=O)Nc3ccc(Cl)c(C(F)(F)F)c3)cc2)ccn1 [sorafenib] (first compound 1.6 µM, partner dose 0.4 µM)	140	51.2	94.7	143	73.9	142	221	275	117	
C[As](C)SC[C@H](NC(=O)CC[C@H](N)C(=O)O)C(=O)NCC(=O)O [Darinaparsin] + Cc1ccc(NC(=O)c2cccc(N(C)C)c2)cc1NC(=O)c1ccc(O)cc1 [ZM336372] (first compound 0.4 µM, partner dose 2 µM)	171	42.6	113	109	83	82.2	78.7		77.9	84.2
C[As](C)SC[C@H](NC(=O)CC[C@H](N)C(=O)O)C(=O)NCC(=O)O [Darinaparsin] + CO[C@@H]1[C@H](N(C)C(=O)c2ccccc2)C[C@H]2O[C@]1(C)n1c3ccccc3c3c4c(c5c6ccccc6n2c5c31)C(=O)NC4 [Midostaurin] (first compound 0.4 µM, partner dose 0.08 µM)	67.7	84.8	220	137	115	86.6	104	855	75.4	77.6
Cn1cc(C2=C(c3cn(C4CCN(Cc5ccccn5)CC4)c4ccccc34)C(=O)NC2=O)c2ccccc21 [Enzastaurin] + NC(=O)Nc1cc(-c2cccc(F)c2)sc1C(=O)N[C@H]1CCCNC1 [AZD7762] (first compound 0.8 µM, partner dose 0.02 µM)	95.1	133	136	356	144	168	105	106	102	94.2
Cn1cc(C2=C(c3cn(C4CCN(Cc5ccccn5)CC4)c4ccccc34)C(=O)NC2=O)c2ccccc21 [Enzastaurin] + COc1cc(Nc2ncc(F)c(Nc3ccc4c(n3)NC(=O)C(C)(C)O4)n2)cc(OC)c1OC [Tamatinib] (first compound 0.8 µM, partner dose 0.4 µM)	324	133	141	191	75.6	143	91.7	93.2	105	53.3
N.N.[Cl][Pt][Cl] [cisplatin] + Cc1cc(N2CCOCC2)cc2[nH]c(-c3c(NC[C@@H](O)c4cccc(Cl)c4)cc[nH]c3=O)nc12 [BMS536924] (first compound 1.6 µM, partner dose 0.2 µM)	184	90.2	155	320	97.7	288	117	139	136	75.8
C[C@]12O[C@H](C[C@]1(O)CO)n1c3ccccc3c3c4c(c5c6ccccc6n2c5c31)CNC4=O [Lestaurtinib] + C[C@]1(c2nc3c(C(N)=O)cccc3[nH]2)CCCN1 [Veliparib] (first compound 0.004 µM, partner dose 1.4 µM)	87.3	135	58.1	48.2	85.9	101	91	84.6	82.6	
Cn1cc(C2=C(c3cn(C4CCN(Cc5ccccn5)CC4)c4ccccc34)C(=O)NC2=O)c2ccccc21 [Enzastaurin] + COc1cc2c(Oc3ccc4[nH]c(C)cc4c3F)ncnc2cc1OCCCN1CCCC1 [cediranib] (first compound 0.8 µM, partner dose 0.4 µM)	90.8	77	137	96.2	243	125	96.2	53.7	94.9	31.6

— the supplement of paper PMC4604168 (melanoma cell lines)
